Amino acid sequences for entries named in this document (tags omitted). A change or cut given only in a name is not applied to a line headed by its entry.
UniProt P10828: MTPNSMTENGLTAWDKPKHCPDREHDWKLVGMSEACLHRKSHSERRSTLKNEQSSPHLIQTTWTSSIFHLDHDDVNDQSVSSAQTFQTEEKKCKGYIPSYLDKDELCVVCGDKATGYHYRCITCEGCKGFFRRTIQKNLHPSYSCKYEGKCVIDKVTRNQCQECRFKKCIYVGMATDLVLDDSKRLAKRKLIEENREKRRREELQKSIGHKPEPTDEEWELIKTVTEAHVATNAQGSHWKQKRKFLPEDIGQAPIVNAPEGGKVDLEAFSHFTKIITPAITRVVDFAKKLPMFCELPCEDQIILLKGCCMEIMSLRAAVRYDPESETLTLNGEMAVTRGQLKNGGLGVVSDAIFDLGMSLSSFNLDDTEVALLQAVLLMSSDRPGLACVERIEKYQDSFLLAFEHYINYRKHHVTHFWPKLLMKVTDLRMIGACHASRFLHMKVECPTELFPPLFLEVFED

“And” between values parts separate entries of the source, which are not always exact repeats. Equal entries are not always repeated. The inconclusive results got no clear call from the source; some entries with a clear call stand among them for comparison. A potency beside an inconclusive call is a rough fit, not a confirmed value. “Side channel” marks fits to a control or component signal instead of the main read-out. The source made the active and inactive calls. Calls follow the shape of the full dose curve.
Each compound was assayed against Thyroid hormone receptor beta (Homo sapiens) (UniProt P10828) (assay: qHTS assay for small molecule agonists of thyroid hormone receptor beta signaling (AID 588545)). Conditions: TR-UAS-bla GripTite HEK 293, beta-lactamase ratio, agonist mode, 18 h; activation: at 76.7 µM, percent of T3 response, DMSO as zero.
From the text: NIH Chemical Genomics Center [NCGC]
U.S. Environmental Protection Agency [EPA]
National Institutes of Environmental Health Sciences [NIEHS]
National Toxicology Program [NTP]
Thyroid hormone receptor (TR) belongs to nuclear hormone receptor superfamily. There are two subtypes for TR: TR-alpha and TR-beta. TR-beta plays a major role in regulating plasma cholesterol levels and it mediates the biological activities of thyroid hormone. Screening environmental chemicals on TR-beta signaling will provide important information for the mechanism of compound action.
NCGC Assay Protocol Summary
Using a beta-lactamase reporter-gene under control of the TR response element, a cell-based assay [GeneBLAzer TR-UAS-bla-GripTite assay developed by Invitrogen] was used to measure TR-beta signaling in agonist mode. TR-UAS-bla-GripTite HEK 293 cells were used with assay medium containing 2% charcoal/dextran FBS, 0.1 mM NEAA and 1 mM sodium pyruvate. The assay was performed in clear bottom black Greiner 1536-well plates. T3 was used as a positive control in the screen. Library compounds were measured for their ability to stimulate the reporter gene activity. Compounds were screened in a titration series in 1536-well format. The fluorescence intensity (405 nm excitation, 460/530 nm emission) was measured using an EnVision plate reader. Data was normalized relative to T3 control (10 nM, 100%), and DMSO only wells (basal, 0%). Concentration-response titration points for each compound were fitted to the Hill equation yielding concentrations of half-maximal stimulation (EC50) and maximal response (efficacy) values.
qHTS protocol for TR-beta beta-lactamase assay in agonist mode
[Step] [Parameter] [Value] [Description]
1. Reagent; 6 uL; 2500 cells/well
2. Incubation; 37 C for 4 hrs
- Dose response; start 3.8 uM, 1:3 dilutions, duplicates in first column
- Two columns of each 10 and 0.4 nM (finals) concentrations.
5. Incubation; 37 C for 18 hrs
6. Detection reagent; 1 uL of CCF4-dye
7. Incubation; RT for 2 hrs
8. Detection; Fluorescence; Envision plate reader
`CC1(C)[C@H](C(=O)O[C@H](C#N)c2cccc(Oc3ccccc3)c2)[C@@H]1C=C(Br)Br` was tested, and the activation was inactive: 11.2%.
With `ClCCBr` the activation was inactive: -1.19%.
In the case of `O=[N+]([O-])c1cc(C(F)(F)F)c(Cl)c([N+](=O)[O-])c1Nc1ncc(C(F)(F)F)cc1Cl`, the Potency is reported as inconclusive: 35.5 µM [side channel, falling, partial curve, poor fit].
For `Nc1ccc(-c2ccc(N)cc2)cc1`, the Potency was inconclusive: 44.7 µM [side channel, falling, single point].
With `C1CC2OC2CC1C1CO1` (stereo unspecified) the activation was inactive: -42.9% and inactive: -4.42%.
With `CCOS(C)(=O)=O` the activation was inconclusive: -38.2%.
With `CCCSC(=O)N(CCC)CCC` the activation was inactive: -14.9%.
In the case of `CCOP(=S)(OCC)SCCl`, the Potency is reported as inconclusive: 0.01 µM [side channel, falling, full curve].
For `Brc1ccc(Oc2ccccc2)cc1`, the Potency was inconclusive: 0.0631 µM [side channel, falling, full curve, poor fit].
With `CCC(C)(c1ccc(O)cc1)c1ccc(O)cc1` the activation was inactive: 8.71%.
In the case of `Cc1ccccc1N`, the activation is reported as inconclusive: -41.6%.
`CNC(=O)O/N=C/C(C)(C)S(C)=O` (stereo unspecified) was tested, and the activation was inconclusive: -17.9% and the Potency was inconclusive: 0.141 µM [side channel, falling, full curve, poor fit].
For `CCCCOCCOP(=O)(OCCOCCCC)OCCOCCCC`, the Potency was inconclusive: 0.0251 µM [side channel, falling, full curve, poor fit].
`FC(Cl)(Cl)Cl` was tested, and the activation was inactive: -43.2%.
`O=C1c2ccccc2C(=O)N1SC(Cl)(Cl)Cl` was tested, and the Potency was inconclusive: 39.8 µM [side channel, rising, partial curve, poor fit].
`c1ccc2c(c1)c1cccc3ccc4cccc2c4c31` was tested, and the Potency was inconclusive: 0.0032 µM [side channel, rising, full curve, poor fit].
With `CCOP(=S)(OCC)Oc1cnc2ccccc2n1` the activation was inactive: 1.71%.
`CCC[N+](=O)[O-]` was tested, and the activation was inactive: -4.31%.
With `C=CC1CC=CCC1` (stereo unspecified) the Potency was inconclusive: 0.178 µM [side channel, falling, full curve, poor fit].
`CCC[CH2][Sn]([CH2]CCC)[CH2]CCC` was tested, and the Potency was inconclusive: 35.5 µM [side channel, falling, partial curve, poor fit].
With `CC(C)CCCCCCOC(=O)c1ccccc1C(=O)OCCCCCCC(C)C` the Potency was inconclusive: 0.398 µM [side channel, falling, full curve, poor fit].
In the case of `O=[N+]([O-])c1ccc2ccc3cccc4ccc1c2c34`, the activation is reported as inactive: -9.22%.
For `Nc1cccc([N+](=O)[O-])c1`, the Potency was inconclusive: 3.16 µM [side channel, falling, full curve, poor fit].
For `N#CC(Br)(Br)C(N)=O`, the Potency was inconclusive: 50.1 µM [rising, single point].
In the case of `O=C1C=C2C(=CCOC2O)O1` (stereo unspecified), the activation is reported as inconclusive: 52%.
For `O=C1C(Cl)=C(Cl)C(=O)c2ccccc21`, the Potency was inconclusive: 70.8 µM [side channel, falling, single point].
In the case of `COc1nc(C)nc(NC(=O)NS(=O)(=O)c2ccccc2CCC(F)(F)F)n1`, the activation is reported as inactive: 11%.
For `COC(=O)Nc1cccc(OC(=O)Nc2cccc(C)c2)c1`, the activation was inactive: -12.7%.
With `C=Cc1ccccc1` the Potency was inconclusive: 0.0056 µM [side channel, falling, full curve, poor fit].
`C=CC(=O)OCC(CC)(COC(=O)C=C)COC(=O)C=C` was tested, and the Potency was inconclusive: 0.004 µM [side channel, falling, full curve, poor fit].
With `Cl/C=C\Cl` the activation was inactive: -10.5%.
In the case of `CCOC(=O)C(C)Oc1ccc(Oc2nc3ccc(Cl)cc3o2)cc1` (stereo unspecified), the Potency is reported as inconclusive: 15.8 µM [side channel, rising, partial curve, poor fit].
`COc1cc(OC)nc(NC(=O)NS(=O)(=O)c2cc(NC=O)ccc2C(=O)N(C)C)n1` was tested, and the activation was inactive: 5.02%.
For `CCC[CH2][Sn]([CH2]CCC)([CH2]CCC)[O][Sn]([CH2]CCC)([CH2]CCC)[CH2]CCC`, the Potency was inconclusive: 44.7 µM [side channel, falling, partial curve, poor fit].
For `COc1ccccc1N`, the activation was inactive: -14.9%.
`Nc1c(Cl)c(F)nc(OCC(=O)O)c1Cl` was tested, and the Potency was inconclusive: 0.0224 µM [side channel, falling, full curve, poor fit].
In the case of `CNC(=O)Oc1cc(C)cc(C(C)C)c1`, the activation is reported as inactive: -8.06%.
In the case of `CCOC(=O)C1OC1(C)c1ccccc1` (stereo unspecified), the Potency is reported as inconclusive: 2.82 µM [side channel, falling, full curve, poor fit].
In the case of `CCCC1COC(Cn2cncn2)(c2ccc(Cl)cc2Cl)O1` (stereo unspecified), the activation is reported as inactive: -12.9% and the Potency is reported as inconclusive: 0.0126 µM [side channel, falling, full curve, poor fit].
